# Columns and labels:
# [1] = tested on: patient with severe infection of the skin around the colostomy
# [2] = tested on: patients who had skin burns from the sun; conditions: less than one mg, diluted and sprayed on the shoulder areas
# [3] = tested on: patients with inflamed skin conditions causing intense pain; assay: Topical morphine sulfate formulations (spray or K-Y gel) in patients with painful inflamed skin conditions, Tables 1 and 2
smiles,measurement,setting,value
"CN1CC[C@]23c4c5ccc(O)c4O[C@H]2[C@@H](O)C=C[C@H]3[C@H]1C5.O=S(=O)(O)O [Morphine, morphine sulfate]",Pain during changing of the dressing,[1]; 15 or 30 mg i.v.,still experienced severe pain
same,Dulling of pain for dressing change and wound cleaning,[1]; morphine drip,ineffective
same,Pain of sunburn,[2],able to alleviate the pain
same,Description after Treatment,"[3]; Patient 1, 69, radiation therapy blisters on buttocks (carcinoma of prostate), K-Y Jelly 120 cc, Morphine 90 mg, three times","no pain at all, able to"
same,Description after Treatment,"[3]; Patient 2, 57, radiation therapy blisters on buttocks (carcinoma of cervix), K-Y Jelly 120 cc, Morphine 90 cc, every 6 hours times 3 days",pain disappears
same,Description after Treatment,"[3]; Patient 3, 73, radiation therapy, very sensitive breasts (carcinoma of breast), Saline 120 cc, Morphine 90 cc, every 6 hours times 7 days",pain disappeared for
same,Description after Treatment: time for which pain disappeared,"[3]; Patient 3, radiation therapy, breast, Saline 120 cc, Morphine 90 cc, every 6 hours",six hours; able to sleep
same,Description after Treatment,"[3]; Patient 4, 4 yr, tonsillectomy, Saline 120 cc, Morphine 90 cc, spray tonsil beds after surgery, one time",No pain after surgery;
same,Description after Treatment,"[3]; Patient 5, 6 yr, tonsillectomy, Saline 120 cc, Morphine 90 cc, spray tonsil beds after surgery, one time",No pain after surgery;
same,Description after Treatment,"[3]; Patient 6, 13, third degree hot oil burn on right thigh, Saline 120 cc, Morphine 90 cc, spray x 3 over 3 hours",Pain is gone; complete
same,Description after Treatment: complete healing time,"[3]; Patient 6, third degree hot oil burn, Saline 120 cc, Morphine 90 cc spray",healing over two days
same,Description after Treatment,"[3]; Patient 7, 28, second degree sunburn of shoulders, unable to wear lead apron before, Saline 120 cc, Morphine 90 cc, spray x 2 over 12 hours",Able to wear lead
same,Description after Treatment,"[3]; Patient 8, 34, shingles (acute Herpes Zoster), Saline 120 cc, Morphine 90 cc, spray every 4 hours times 3",Stopped all pain
same,Description after Treatment: healing time,"[3]; Patient 8, shingles, Saline 120 cc, Morphine 90 cc spray",three days
same,Description after Treatment: share of pain disappeared in one day,"[3]; Patient 9, 64, shingles on forehead, K-Y Jelly 120 cc, Morphine 90 cc, every 6 hours, in one day",60%-70% of pain
same,Description after Treatment: time to complete disappearance of pain,"[3]; Patient 9, shingles on forehead, K-Y Jelly 120 cc, Morphine 90 cc, every 6 hours","day, completely in 3-4 days"
same,Description after Treatment: pain relieved,"[3]; Patient 10, 81, shingles of left leg, K-Y Jelly 120 cc, Morphine 90 cc, every 6 hours, over 3 days",Pain relieved 50%
same,Description after Treatment: pain medication needed,"[3]; Patient 10, shingles of left leg, K-Y Jelly 120 cc, Morphine 90 cc, every 6 hours",over 3 days; no more
same,"Side effects (addiction, dullness in the brain, respiratory depression, nausea, vomiting, itching)",[3]; two or three mg sprayed or applied topically to about six inches square of skin,without any side effects

# — patent US6787149B1 (El Khoury and Stein Ltd., priority 2000, dated 2004)
